According to the supplement of paper PMC10338343:
± gives the standard deviation. The entries are a selection whose mix differs from that of the whole data set. Many entries were measured with a wide error. The list shows a part of the results.

Assays:
[1] = test system: MILI (PIWIL2) piRISC loaded with L1MC piRNA (26 nt); assay: pre-steady-state target cleavage rate (min^-1); higher = faster piRNA-guided slicing of the target; conditions: guide: L1MC piRNA 5'p-UAACUAAAUACUAUGCAAGCUGUAGG
In short: (§1)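 Active affinity-purified piRISC (1 nM) loaded with one synthetic guide was mixed with a transcribed, DNA-blocked target RNA library (0.1 nM), with or without 500 nM GTSF1 partner protein, in HEPES–potassium acetate buffer at 33 °C for 0–8 or 0–960 min. Uncleaved targets were sequenced, normalised to depth and to weakly complementary targets, and pooled across three trials, with k3 capped at 0.0001 min^-1. The pre-steady-state cleavage rate was determined with a burst-and-steady-state fit.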

[2] = test system: MIWI (PIWIL1) piRISC loaded with L1MC piRNA (30 nt); assay: as above; conditions: guide: L1MC piRNA 5'p-UAACUAAAUACUAUGCAAGCUGUAGGUCCU; auxiliary factor: none (no GTSF1)
In short: as §1

[3] = test system: EfPiwi piRISC loaded with L1MC piRNA (26 nt); assay: pre-steady-state target cleavage rate (min^-1); guide: L1MC piRNA 5'p-UAACUAAAUACUAUGCAAGCUGUAGG; MIWI and MILI are mouse PIWI proteins and EfPiwi is from a freshwater sponge; tags in brackets are library labels; higher = faster piRNA-guided slicing of the target
In short: as §1

[4] = auxiliary factor: none (no GTSF1)
[5] = auxiliary factor: none (no Gtsf1)
[6] = auxiliary factor: 500 nM Ephydatia muelleri Gtsf1

| Sequence | pre-steady-state target cleavage rate [1, 4] | pre-steady-state target cleavage rate [2] | pre-steady-state target cleavage rate [3, 5] | pre-steady-state target cleavage rate [3, 6] | pre-steady-state target cleavage rate ([1]; auxiliary factor: 500 nM mouse GTSF1) |
| --- | --- | --- | --- | --- | --- |
| UCCUGCUACAGCUUCCAUAGUAUUUUCAAA | 0.000711 ± 0.0083 | 0.000241 ± 0.019 | 0.000321 ± 0.016 |  |  |
| UCCUCCUACAGCUUGCAUAGUUAAAUCAAA [g10:g26:cont:t1A] | 0.000702 ± 0.0072 | 0.000734 ± 0.0091 |  | 0.00137 ± 0.0047 |  |
| UCCUGGAACAGCUUGGUAAGUAUUUAGAAA | 0.000792 ± 0.0071 | 0.000808 ± 0.0082 |  | 0.00029 ± 0.011 |  |
| UCCUGGAUGACGAUGCAUAGUAUUUAGUAA | 0.00256 ± 0.0039 | 0.000937 ± 0.0062 |  | 0.00247 ± 0.0032 |  |
| UCCUGGAUGAGCUUGCAUAGUAAAAUCAAA [g9:g21:cont:t1A] | 0.000105 ± 0.039 | 0.00026 ± 0.017 |  | 0.000591 ± 0.0069 |  |
| UCCUCCUACAGCUUGCAUAGUAUAUUCAAA | 0.00148 ± 0.0033 | 0.000309 ± 0.0066 |  | 0.00316 ± 0.0027 |  |
| UCCUGGAUGUCGUAGCAUAGUAUUUUGUUA | 0.00166 ± 0.0042 | 0.00111 ± 0.0076 |  | 0.00016 ± 0.031 |  |
| UCCUGGAUGUGCUUGCAUUCAAUUUAGAAA | 0.000228 ± 0.02 | 0.000437 ± 0.017 |  | 0.000268 ± 0.013 |  |
| UCCUGGAUGUCGAUGCAAUGUAUUUAGUUA | 0.000511 ± 0.0088 | 0.000841 ± 0.0063 |  | 0.000325 ± 0.0076 |  |
| UCCUGGAUGUCGAAGCAUAGUAUUUAAUUA | 0.000865 ± 0.0069 | 0.000656 ± 0.012 |  | 0.00111 ± 0.0066 |  |
| UCCUGGAUGUCGAUGAAUAGUAUUUAGUUA | 0.000617 ± 0.0065 | 0.000335 ± 0.016 |  | 0.0003 ± 0.012 |  |
| UCCUGGAUGUGCUUCCAUAGUAUUAAGUUA | 0.000804 ± 0.0074 | 0.000916 ± 0.007 |  | 0.000366 ± 0.0087 |  |
| UCCUGCUACAGCUUGCAUAGUUUUUUCAAA | 0.00174 ± 0.0039 | 0.00153 ± 0.005 | 0.000567 ± 0.011 |  |  |
| UCCUCCUACAGCUUGGUUAGUAUUUACAAA | 0.00113 ± 0.0038 | 0.00103 ± 0.0038 |  | 0.0023 ± 0.0035 |  |
| UCCUGGUACAGGAUGCAUAGUAUUUACAAA | 0.000899 ± 0.0053 | 0.000563 ± 0.011 |  | 0.000937 ± 0.0053 |  |
| UCCUGGAUCAGCUUGCAUAGUAAAUACAAA | 0.00115 ± 0.0053 | 0.00139 ± 0.0038 |  | 0.000626 ± 0.0074 |  |
| UCCUGGAUCAGCUUGCUAUAGUAUUUAGUUA | 0.000525 ± 0.012 | 0.0013 ± 0.0035 |  | 0.00528 ± 0.0019 |  |
| UCCUCCUACAGCUUGCAUACAUAAAUCAAA [g12:g26:cont:t1A] | 0.000679 ± 0.007 | 0.000284 ± 0.011 |  | 0.000545 ± 0.0097 |  |
| UCCUGGUACAGGAUGCAUAGUAUUUUCAAA | 0.00058 ± 0.0084 | 0.000123 ± 0.025 |  | 0.00166 ± 0.003 |  |
| UCCUGGAUGUCGUUGCAUAGUAUUAAGAUA | 0.000781 ± 0.0066 | 0.000503 ± 0.013 |  | 0.000171 ± 0.03 |  |
| UCCUGGAUGAGCUUGCAUAGUAUAUAGAAA | 0.00115 ± 0.0065 | 0.00227 ± 0.0036 |  | 0.000976 ± 0.007 |  |
| UCCUGGAUGUCGAUGCAUAGUAUUUUCUUA | 0.000744 ± 0.0084 | 0.000688 ± 0.0083 |  | 0.000256 ± 0.012 |  |
| UCCUGGAUGUCGAUGCAUACGUAUUUAGUUA | 0.000541 ± 0.011 | 0.000552 ± 0.015 |  | 0.000411 ± 0.0092 |  |

Given as tab-separated lines: entries from further up.
Sequence	pre-steady-state target cleavage rate [1, 4]	pre-steady-state target cleavage rate [2]	pre-steady-state target cleavage rate [3, 5]	pre-steady-state target cleavage rate [3, 6]	pre-steady-state target cleavage rate ([1]; auxiliary factor: 500 nM mouse GTSF1)
UCCUGCUACAGCUUCCAUAGUAUUUUCAAA	0.000711 ± 0.0083	0.000241 ± 0.019	0.000321 ± 0.016		
UCCUGGAUGUCGUAGCAUAGUAUUUUGUUA	0.00166 ± 0.0042	0.00111 ± 0.0076		0.00016 ± 0.031	
UCCUCCUACAGCUUGGUUAGUAUUUACAAA	0.00113 ± 0.0038	0.00103 ± 0.0038		0.0023 ± 0.0035	

Later entries

| Sequence | pre-steady-state target cleavage rate [1, 4] | pre-steady-state target cleavage rate [2] | pre-steady-state target cleavage rate [3, 5] | pre-steady-state target cleavage rate [3, 6] | pre-steady-state target cleavage rate ([1]; auxiliary factor: 500 nM mouse GTSF1) |
| --- | --- | --- | --- | --- | --- |
| UCCUGGAUGUCGAAGCAUAGUUAAUAGUUA | 0.000624 ± 0.01 | 0.000607 ± 0.0082 |  | 0.000783 ± 0.0083 |  |
| UCCUGGAUCAGCUUCCAUAGUAUAUAGUUA | 0.000226 ± 0.029 | 0.000709 ± 0.01 |  | 0.000467 ± 0.0073 |  |
| UCCUGGAUCAGCUUGCAUUCAUAAAUCAAA [g13:g22:cont:t1A] | 0.000241 ± 0.025 | 0.00059 ± 0.013 |  | 0.000738 ± 0.0075 |  |
| UCCUGGAUGUCCUUGCAUAGUUUUUACUUA | 0.000977 ± 0.0062 | 0.00111 ± 0.0051 |  | 0.000266 ± 0.0088 |  |
| UCCUGGAUCAGCUUCCAUAGUAUUUUCAAA | 0.000252 ± 0.025 | 0.000202 ± 0.012 |  | 0.000752 ± 0.0065 |  |
| UCCUGGAACACGAUGCAUAGUAUUUUCAAA | 0.000939 ± 0.0061 | 0.00101 ± 0.0099 |  | 0.000607 ± 0.0058 |  |
| UCCUGGAUGUCGAUGCAUAGUUAAUAGUUA |  | 0.00129 ± 0.0049 |  | 0.000155 ± 0.018 | 0.00324 ± 0.0043 |
| UCCUCCUACAGCUUGCAUAGUAUAAUCAAA | 0.00114 ± 0.005 | 0.000571 ± 0.008 |  | 0.00234 ± 0.0031 |  |
| UCCUGCUACAGCUUGCAAUGUAUUUAGAAA | 0.00118 ± 0.0052 | 0.00119 ± 0.0052 |  | 0.00108 ± 0.0048 |  |
| UCCUGGAACAGCUUGCAUAGUAUAAUGUAA | 0.000743 ± 0.0073 | 0.00225 ± 0.0035 |  | 0.00116 ± 0.0032 |  |
| UCCUGGAUGUCGAUCCAUAGUAUUUAGUUA | 0.00062 ± 0.0082 | 0.000314 ± 0.015 |  | 0.00078 ± 0.0081 |  |
| UCCUGGUACAGGAAGCAUAGUAUUUACAAA | 0.000792 ± 0.008 | 0.00104 ± 0.0061 |  | 0.000691 ± 0.0047 |  |
| UCCUGGAUGAGCAACCAUAGUAUUUAGUAA | 0.00093 ± 0.0067 | 0.000554 ± 0.011 | 0.000635 ± 0.013 |  |  |
| UCCUGGAUGUCGUUGCAUACUAAUUAGUUA | 0.000437 ± 0.011 | 0.000891 ± 0.0085 |  | 0.000318 ± 0.0092 |  |
| UCCUGCUACACCUUCCAUAGUAUUUAGUUA | 0.00113 ± 0.0063 | 0.00183 ± 0.005 |  | 0.00334 ± 0.0022 |  |
| UCCUGGAUGUCGAUGCAUAGUAUUUUGAUA | 0.00063 ± 0.0076 | 0.000526 ± 0.011 |  | 0.00125 ± 0.0054 |  |
| UCCUGCUACAGCUUGCAUACAUUUUAGAAA | 0.000159 ± 0.017 | 0.000186 ± 0.014 |  | 0.0012 ± 0.0057 |  |
| UCCUGGAUGUCGAUGCAUAGUAUAUAGUAA | 0.00165 ± 0.0041 | 0.00053 ± 0.014 |  | 0.00019 ± 0.025 |  |
| UCCUGGAUGAGGUUGCAUAGUAUUUAGAUA | 0.00123 ± 0.0055 | 0.00208 ± 0.0033 |  | 0.00218 ± 0.0024 |  |
| UCCUGGAACAGCUUGCAUAGUAAAUACAAA | 0.000804 ± 0.0078 | 0.0014 ± 0.0064 |  | 0.000741 ± 0.0069 |  |
| UCCUGGAUGUCGUUGCAUAGAUAUUAGUUA | 0.000627 ± 0.0084 | 0.00085 ± 0.008 |  | 0.000746 ± 0.0087 |  |
| UCCUGGAACAGCUUCCAUAGUUUUUAGUUA | 0.00086 ± 0.0068 | 0.00111 ± 0.0066 |  | 0.000902 ± 0.0059 |  |
